The supplement of paper PMC8728848
Some of the results follow.

Key:
Experiment in all cases: glycan array binding signal (z-score within array); higher = stronger binding
Conditions in all cases: glycan notation: IUPAC condensed, linker removed
[1] = target: Gal(a1-3)Gal(b1-4)GlcNAc
Summary of the method: (§1)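 The binding signal is a Z-score computed within each array. Data were drawn from 3228 arrays in the Consortium for Functional Glycomics database, restricted to those with a known protein sequence. Scores were averaged over arrays of the same protein sequence at different concentrations or buffers, and over linkers, and negative values can be taken as non-binding.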

[2] = target: Gal(a1-3)Gal(b1-4)GlcNAc(b1-2)Man
Summary of the method: as §1

[3] = target: Gal(a1-3)Gal(b1-4)GlcNAc(b1-2)Man(a1-3)[Gal(a1-3)Gal(b1-4)GlcNAc(b1-2)Man(a1-6)]Man(b1-4)GlcNAc(b1-4)GlcNAc
Summary of the method: as §1

[4] = target: Gal(a1-3)Gal(b1-4)GlcNAc(b1-3)GalNAc
Summary of the method: as §1

[5] = target: Gal(a1-3)Gal(b1-4)GlcNAc(b1-6)GalNAc
Summary of the method: as §1

[6] = target: Gal(a1-3)Gal(b1-4)[Fuc(a1-3)]GlcNAc
Summary of the method: as §1

[7] = target: Gal(a1-3)Gal(b1-4)[Fuc(a1-3)]GlcNAc(b1-2)Man(a1-3)[Gal(a1-3)Gal(b1-4)[Fuc(a1-3)]GlcNAc(b1-2)Man(a1-6)]Man(b1-4)GlcNAc(b1-4)GlcNAc
Summary of the method: as §1

[8] = target: Gal(a1-3)GalNAc
Summary of the method: as §1

[9] = target: Gal(a1-3)[Gal(a1-4)]Gal(b1-4)GlcNAc
Summary of the method: as §1

[10] = target: Gal(a1-4)Gal(b1-3)GlcNAc(b1-2)Man(a1-3)[Gal(a1-4)Gal(b1-3)GlcNAc(b1-2)Man(a1-6)]Man(b1-4)GlcNAc(b1-4)GlcNAc
Summary of the method: as §1

[11] = target: Gal(a1-4)Gal(b1-4)Glc
Summary of the method: as §1

[12] = target: Gal(a1-4)Gal(b1-4)GlcNAc
Summary of the method: as §1

[13] = target: Gal(a1-4)Gal(b1-4)GlcNAc(b1-2)Man(a1-3)[Gal(a1-4)Gal(b1-4)GlcNAc(b1-2)Man(a1-6)]Man(b1-4)GlcNAc(b1-4)GlcNAc
Summary of the method: as §1

[14] = target: Gal(a1-4)Gal(b1-4)GlcNAc(b1-3)Gal(b1-4)Glc
Summary of the method: as §1

[15] = target: Gal(a1-4)GlcNAc
Summary of the method: as §1

[16] = target: Gal(a1-6)Glc
Summary of the method: as §1

[17] = target: Gal(b1-2)Gal
Summary of the method: as §1

[18] = target: Gal(b1-3)Gal
Summary of the method: as §1

[19] = target: Gal(b1-3)Gal(b1-4)GlcNAc
Summary of the method: as §1

[20] = target: Gal(b1-3)GalNAc
Summary of the method: as §1

[21] = target: Gal(b1-3)GalNAc(a1-3)[Fuc(a1-2)]Gal(b1-4)Glc
Summary of the method: as §1

[22] = target: Gal(b1-3)GalNAc(a1-3)[Fuc(a1-2)]Gal(b1-4)GlcNAc
Summary of the method: as §1

[23] = target: Gal(b1-3)GalNAc(b1-3)Gal
Summary of the method: as §1

[24] = target: Gal(b1-3)GalNAc(b1-3)Gal(a1-4)Gal(b1-4)Glc
Summary of the method: as §1

[25] = target: Gal(b1-3)GalNAc(b1-4)Gal(b1-4)Glc
Summary of the method: as §1

[26] = target: Gal(b1-3)GalNAc(b1-4)[Neu5Ac(a2-3)]Gal(b1-4)Glc
Summary of the method: as §1

[27] = target: Gal(b1-3)GlcNAc
Summary of the method: as §1

[28] = target: Gal(b1-3)GlcNAc(a1-3)Gal(b1-4)GlcNAc
Summary of the method: as §1

[29] = target: Gal(b1-3)GlcNAc(a1-6)Gal(b1-4)GlcNAc
Summary of the method: as §1

[30] = target: Gal(b1-3)GlcNAc(b1-2)Man
Summary of the method: as §1

[31] = target: Gal(b1-3)GlcNAc(b1-2)Man(a1-3)[Gal(b1-3)GlcNAc(b1-2)Man(a1-6)]Man(b1-4)GlcNAc(b1-4)GlcNAc
Summary of the method: as §1

[32] = target: Gal(b1-3)GlcNAc(b1-2)Man(a1-3)[Gal(b1-3)GlcNAc(b1-2)Man(a1-6)]Man(b1-4)GlcNAc(b1-4)[Fuc(a1-6)]GlcNAc
Summary of the method: as §1

[33] = target: Gal(b1-3)GlcNAc(b1-2)Man(a1-3)[GlcNAc(b1-4)][Gal(b1-3)GlcNAc(b1-2)Man(a1-6)]Man(b1-4)GlcNAc(b1-4)GlcNAc
Summary of the method: as §1

[34] = target: Gal(b1-3)GlcNAc(b1-2)[Gal(b1-3)GlcNAc(b1-6)]Man(a1-6)[Gal(b1-3)GlcNAc(b1-2)Man(a1-3)]Man(b1-4)GlcNAc(b1-4)GlcNAc
Summary of the method: as §1

[35] = target: Gal(b1-3)GlcNAc(b1-3)Gal(b1-3)GlcNAc
Summary of the method: as §1

[36] = target: Gal(b1-3)GlcNAc(b1-3)Gal(b1-4)Glc
Summary of the method: as §1

[37] = target: Gal(b1-3)GlcNAc(b1-3)Gal(b1-4)GlcNAc
Summary of the method: as §1

[38] = target: Gal(b1-3)GlcNAc(b1-3)Gal(b1-4)GlcNAc(b1-2)Man(a1-3)[Gal(b1-3)GlcNAc(b1-3)Gal(b1-4)GlcNAc(b1-2)Man(a1-6)]Man(b1-4)GlcNAc(b1-4)GlcNAc
Summary of the method: as §1

[39] = target: Gal(b1-3)GlcNAc(b1-3)Gal(b1-4)GlcNAc(b1-2)[Gal(b1-3)GlcNAc(b1-3)Gal(b1-4)GlcNAc(b1-6)]Man(a1-6)[Gal(b1-3)GlcNAc(b1-3)Gal(b1-4)GlcNAc(b1-2)Man(a1-3)]Man(b1-4)GlcNAc(b1-4)[Fuc(a1-6)]GlcNAc
Summary of the method: as §1

[40] = target: Gal(b1-3)GlcNAc(b1-3)Gal(b1-4)GlcNAc(b1-3)Gal(b1-4)GlcNAc(b1-2)[Gal(b1-3)GlcNAc(b1-3)Gal(b1-4)GlcNAc(b1-3)Gal(b1-4)GlcNAc(b1-6)]Man(a1-6)[Gal(b1-3)GlcNAc(b1-3)Gal(b1-4)GlcNAc(b1-3)Gal(b1-4)GlcNAc(b1-2)Man(a1-3)]Man(b1-4)GlcNAc(b1-4)[Fuc(a1-6)]GlcNAc
Summary of the method: as §1

[41] = target: Gal(b1-3)GlcNAc(b1-3)Gal(b1-4)GlcNAc(b1-6)[Gal(b1-3)GlcNAc(b1-3)]Gal(b1-4)Glc
Summary of the method: as §1

[42] = target: Gal(b1-3)GlcNAc(b1-3)Gal(b1-4)[Fuc(a1-3)]GlcNAc
Summary of the method: as §1

[43] = target: Gal(b1-3)GlcNAc(b1-3)Gal(b1-4)[Fuc(a1-3)]GlcNAc(b1-6)[Gal(b1-3)GlcNAc(b1-3)]Gal(b1-4)Glc
Summary of the method: as §1

[44] = target: Gal(b1-3)GlcNAc(b1-3)GalNAc
Summary of the method: as §1

[45] = target: Gal(b1-3)GlcNAc(b1-6)Gal(b1-4)GlcNAc
Summary of the method: as §1

B1: MUB70 (Lactobacillus reuteri) (protein)
chain: CVHVQYIDGETDQMLRQDDLDGYTDETIPYSTAEGIKKFEGDGYELFKDNFPAGEKFDNDDTNDQFYTVIF
glycan array binding signal (z-score) [1]: -0.676
glycan array binding signal (z-score) [2]: 0.009
glycan array binding signal (z-score) [3]: 0.332
glycan array binding signal (z-score) [4]: 1.11
glycan array binding signal (z-score) [5]: -0.422
glycan array binding signal (z-score) [6]: -0.625
glycan array binding signal (z-score) [7]: 1.64
glycan array binding signal (z-score) [8]: 0.694
glycan array binding signal (z-score) [9]: -0.57
glycan array binding signal (z-score) [10]: -0.288
glycan array binding signal (z-score) [11]: 1.16
glycan array binding signal (z-score) [12]: -0.386
glycan array binding signal (z-score) [13]: 0.445
glycan array binding signal (z-score) [14]: 0.192
glycan array binding signal (z-score) [15]: -0.556
glycan array binding signal (z-score) [16]: -0.626
glycan array binding signal (z-score) [17]: 2.16
glycan array binding signal (z-score) [18]: -0.503
glycan array binding signal (z-score) [19]: -0.49
glycan array binding signal (z-score) [20]: -0.066
glycan array binding signal (z-score) [21]: 0.46
glycan array binding signal (z-score) [22]: -0.154
glycan array binding signal (z-score) [23]: 1.55
glycan array binding signal (z-score) [24]: -0.338
glycan array binding signal (z-score) [25]: -0.464
glycan array binding signal (z-score) [26]: -0.163
glycan array binding signal (z-score) [27]: -0.488
glycan array binding signal (z-score) [28]: 0.396
glycan array binding signal (z-score) [29]: 0.052
glycan array binding signal (z-score) [30]: 0.491
glycan array binding signal (z-score) [31]: -0.414
glycan array binding signal (z-score) [32]: -0.7
glycan array binding signal (z-score) [33]: 0.3
glycan array binding signal (z-score) [34]: 1.76
glycan array binding signal (z-score) [35]: -0.315
glycan array binding signal (z-score) [36]: -0.539
glycan array binding signal (z-score) [37]: -0.441
glycan array binding signal (z-score) [38]: 0.487
glycan array binding signal (z-score) [39]: 0.309
glycan array binding signal (z-score) [40]: -0.476
glycan array binding signal (z-score) [41]: 0.949
glycan array binding signal (z-score) [42]: 0.53
glycan array binding signal (z-score) [43]: 0.233
glycan array binding signal (z-score) [44]: -0.051
glycan array binding signal (z-score) [45]: 1.7
